# Experimental data: PubChem BioAssay AID686938 (Drosophila RNAi Screening Center, 2013)
# Test: 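Fly genes required for calcium entry once internal stores are emptied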 (primary screen)
# Cells: Drosophila S2R+ cells
# Reagent: long dsRNA against Drosophila genes, about 0.25 µg dsRNA per well, roughly 10,000 cells
# Duration: 5 days of knock-down before the calcium assay
# Conditions: thapsigargin (SERCA pump blocker) to empty calcium stores; entry signal taken 4 min after adding it
# Measurement: 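Per-well fluo-4 fluorescence in two replicates, unnormalised, measured in resting cells and 4 min after store depletion by the SERCA blocker thapsigargin; ratio of the two present in few wells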
# Scale: calcium entry signal: higher = stronger calcium signal after store depletion; entry to resting ratio: higher = more calcium entry relative to resting level; resting calcium signal: higher = higher resting calcium signal
# Rule for the call: 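Hit if the duplicate-averaged plate z-score for entry over resting signal is under −3; wells with weak total dye signal (Fmax z < −2) or more than 5 off-targets removed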
# Meaning of the calls: active = strongly reduced calcium entry; inactive = no strong reduction
# The deposit covers about 23,000 reagents; shown is a random part of those with a known target gene and a result. Over the whole deposit, 75 (0.33%) were called active. 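Raw plate signals without normalisation; calls rest on plate z-scores that were not deposited; ratio present for only 364 wells.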 Reagents against one gene are numbered here. Names joined by + are all predicted targets of the reagent. Reagent sequences are not shown. Not stated in the record: the dose of the treatment.
gene,reagent no.,"calcium entry signal, replicate 1 (fluorescence units)","calcium entry signal, replicate 2 (fluorescence units)",entry to resting ratio,"resting calcium signal, replicate 1 (fluorescence units)","resting calcium signal, replicate 2 (fluorescence units)",Outcome
Vm26Aa,1,3.75e7,4.02e7,,1.68e7,1.98e7,inactive
cid,1,4.47e7,3.84e7,,2.17e7,2.02e7,inactive
cid,2,3.35e7,4.04e7,,1.72e7,1.91e7,inactive
CG34241,1,5.68e7,5.17e7,,2.80e7,2.34e7,inactive
CG10345,1,4.11e7,3.06e7,,2.01e7,1.51e7,inactive
ND-B17.2,1,4.52e7,4.65e7,,2.06e7,2.12e7,inactive
Cpr66D,1,2.83e7,3.71e7,,1.50e7,1.84e7,inactive
Cpr66D,2,3.23e7,3.59e7,,3.08e7,1.89e7,inactive
Cpr66D,3,4.65e7,3.58e7,,2.20e7,1.52e7,inactive
TBC1d7 + mRpS24,1,5.34e7,5.42e7,,2.36e7,2.19e7,inactive
lncRNA:CR33218,1,4.56e7,3.79e7,,2.06e7,1.58e7,inactive
CG14275,1,3.88e7,6.61e7,,2.00e7,2.70e7,inactive
koko + Vti1b,1,4.87e7,3.98e7,,2.22e7,1.75e7,inactive
koko + Vti1b,2,5.05e7,3.89e7,,6.05e7,1.71e7,inactive
CG30391,1,3.52e7,3.06e7,,2.02e7,1.43e7,inactive
Obp19a,1,5.04e7,4.91e7,,2.30e7,1.90e7,inactive
east,1,3.33e7,6.25e7,1.9,1.77e7,2.52e7,inactive
Alg9,1,4.11e7,3.35e7,,2.08e7,1.58e7,inactive
CG4558,1,4.12e7,4.08e7,,1.84e7,1.93e7,inactive
Slob,1,3.12e7,3.31e7,,1.64e7,1.56e7,inactive
Slob,2,5.00e7,,,2.63e7,,inactive
modSP,1,2.44e7,3.85e7,,1.31e7,4.48e7,inactive
modSP,2,2.51e7,4.01e7,,1.18e7,5.52e7,inactive
modSP,3,3.44e7,3.13e7,,1.76e7,1.41e7,inactive

2 entries already listed, sorted by “calcium entry signal, replicate 2 (fluorescence units)”, high to low.
gene,reagent no.,"calcium entry signal, replicate 1 (fluorescence units)","calcium entry signal, replicate 2 (fluorescence units)",entry to resting ratio,"resting calcium signal, replicate 1 (fluorescence units)","resting calcium signal, replicate 2 (fluorescence units)",Outcome
ND-B17.2,1,4.52e7,4.65e7,,2.06e7,2.12e7,inactive
CG10345,1,4.11e7,3.06e7,,2.01e7,1.51e7,inactive
